PubChem BioAssay AID1159584, Peter MacCallum Cancer Centre, 2016
The deposit covers about 18,000 reagents; below is a part drawn at random. Reagent sequences are not shown. Not given: the amount of reagent, the time to read-out.

Aim: 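Knock-downs that harm CDH1-null cells more than parental MCF10A cells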 (primary screen)
System: human MCF10A breast epithelial cells, parental and CDH1-null
Knock-down reagent: siRNA against human genes
Measured: 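Cell viability by CellTiter-Glo ATP luminescence, each line scaled to the mean of mock wells across plates, then CDH1-null over parental ratio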
Direction: CDH1-null / parental viability ratio: higher = CDH1-null cells survive relatively better than parental; CDH1-null viability vs mock: higher = more viable CDH1-null cells; parental viability vs mock: higher = more viable parental cells

Gene,CDH1-null / parental viability ratio,CDH1-null viability vs mock (fraction of mock),parental viability vs mock (fraction of mock)
UBE2T (ubiquitin conjugating enzyme E2 T),1.29,0.71,0.55
KRTAP27-1 (keratin associated protein 27-1),0.65,0.43,0.66
C2orf69 (chromosome 2 open reading frame 69),0.95,0.59,0.62
MCOLN1 (mucolipin TRP cation channel 1),1.22,1.18,0.97
FXYD5 (FXYD domain containing ion transport regulator 5),1.43,0.63,0.44
MAP3K10 (mitogen-activated protein kinase kinase kinase 10),1.04,0.87,0.84
POGK (pogo transposable element derived with KRAB domain),1.13,0.97,0.86
SURF1 (SURF1 cytochrome c oxidase assembly factor),0.9,0.94,1.04
ZMYM3 (zinc finger MYM-type containing 3),1.05,0.84,0.8
ACSF3 (acyl-CoA synthetase family member 3),1.13,0.59,0.52
"PCDHGA10 (protocadherin gamma subfamily A, 10)",1.4,0.8,0.57
KRT81 (keratin 81),1.11,0.6,0.54
CNTN4 (contactin 4),0.9,0.52,0.58
MPZ (myelin protein zero),1.07,0.6,0.56
LRRC25 (leucine rich repeat containing 25),1.09,0.83,0.76
SWT1 (SWT1 RNA endoribonuclease homolog),1,0.44,0.44
ELOF1 (elongation factor 1),0.76,0.58,0.76
OR2A42 (olfactory receptor family 2 subfamily A member 42),0.97,0.68,0.7
XPO5 (exportin 5),1.14,1.23,1.08
BTBD17 (BTB domain containing 17),1.39,0.86,0.62
SIRAL1 (SIR2 antiphage like 1),0.99,1,1.01
THG1L (tRNA-histidine guanylyltransferase 1 like),0.8,0.72,0.9
OR5M9 (olfactory receptor family 5 subfamily M member 9),1.21,0.82,0.68
NIPSNAP2 (nipsnap homolog 2),1.23,0.86,0.7
ZNF354A (zinc finger protein 354A),1.01,0.96,0.95
GAL3ST4 (galactose-3-O-sulfotransferase 4),0.8,0.43,0.54
DCAF15 (DDB1 and CUL4 associated factor 15),0.97,0.97,1
H2BC8 (H2B clustered histone 8),1.27,0.84,0.66

4 entries already listed, arranged by “CDH1-null viability vs mock (fraction of mock)”, ascending.
Gene,CDH1-null / parental viability ratio,CDH1-null viability vs mock (fraction of mock),parental viability vs mock (fraction of mock)
CNTN4 (contactin 4),0.9,0.52,0.58
KRT81 (keratin 81),1.11,0.6,0.54
MPZ (myelin protein zero),1.07,0.6,0.56
"PCDHGA10 (protocadherin gamma subfamily A, 10)",1.4,0.8,0.57
